In article doi:10.1101/2023.04.11.536274:
These are yes or no findings as the source states them, for the method shown. Some entries that bind do so weakly or less than the wild type.

Biological target: myosin regulatory light chain (RLC) (human (endogenous in ventricular tissue)) (UniProt P10916)
Assay: cryo-EM structure

B1: myosin regulatory light chain (RLC) (protein, UniProt P10916 1-166)
chain: MAPKKAKKRAGGANSNVFSMFEQTQIQEFKEAFTIMDQNRDGFIDKNDLRDTFAALGRVNVKNEEIDEMIKEAPGPINFTVFLTMFGEKLKGADPEETILNAFKVFDPEGKGVLKADYVREMLTTQAERFSKEEVDQMFAAFPPDVTGNLDYKNLVHIITHGEEKD
  binding: binds
